Assay results as given in patent US20040248207A1 (UNIVERSITY COLLEGE LONDON, published 2004).
These are yes or no findings as the source states them, for the method shown. In cells and extracts the contact can be indirect. Some binding calls cover weakened binding; strength is not graded here. Where a sequence is shown, tags or fusion partners need not be part of it.

Sequences of proteins named here, by UniProt entry; tags and fusion partners are left off. A change or cut given only in a name is not applied to a line headed by its entry.
UniProt P05943: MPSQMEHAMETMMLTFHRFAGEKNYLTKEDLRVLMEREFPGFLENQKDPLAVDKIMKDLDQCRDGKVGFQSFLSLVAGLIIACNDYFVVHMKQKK

Molecular target: GFP-p11 fusion protein (rat) (UniProt P05943)
Assay: GST pull-down on glutathione-sepharose beads, anti-GFP immunoblot

- binding: binds
Binder: LVGEPLEDLDPFYSTHRTFMVLNKSRTISR (peptide, not shown: a dimerising Fc or GST) [GST-N3-2]
